## Drug screen on melanoma cell lines: apoptosis marker

Data from the primary screen of doi:10.1371/journal.pone.0140310, rounded.

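Human melanoma cells were exposed to two drugs together for 72 h in 1,536-well plates and read by automated microscopy after fixing and staining. The read-out is the fraction of cleaved-PARP-positive nuclei, in % of that fraction in the DMSO control; 200 means twice the control level of this apoptosis marker. Concentrations were fixed for each drug; these are the higher of two levels. No replicate spread is given; individual values may be noisy. The marker varies much from line to line, for technical or biological reasons.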
Only some of the drugs and lines screened are listed, without regard to their results.

Every entry is a combination with etoposide at 100 nM: COc1cc([C@@H]2c3cc4c(cc3[C@@H](O[C@@H]3O[C@@H]5CO[C@@H](C)O[C@H]5[C@H](O)[C@H]3O)[C@H]3COC(=O)[C@H]23)OCO4)cc(OC)c1O

| Second drug | WM451Lu |
|---|---|
| O=c1cc(-c2cccc3c2Sc2ccccc2S3)oc(N2CCOCC2)c1 at 5000 nM | 229 |
| C[C@]12O[C@H](C[C@]1(O)CO)n1c3ccccc3c3c4c(c5c6ccccc6n2c5c31)CNC4=O at 20 nM | 196 |
| Oc1cc(-c2nc(-c3ccccc3)[nH]c2-c2ccncc2)ccc1Cl at 1000 nM | 665 |
| Cn1c(=O)n(-c2ccc(C(C)(C)C#N)cc2)c2c3cc(-c4cnc5ccccc5c4)ccc3ncc21 at 20 nM | 85.5 |
| Cc1cc(SCc2sc(-c3ccc(C(F)(F)F)c(F)c3)nc2C)ccc1OCC(=O)O at 10000 nM | 175 |
| Oc1nc(-c2ccc(C(F)(F)F)cc2)nc2c1CSCC2 at 10000 nM | 208 |
| CN(C)S(=O)(=O)c1ccc2c(c1)/C(=C/c1cc3c([nH]1)CCCC3)C(=O)N2 at 2000 nM | 13.3 |
| CCCCCCCCCCCC1=C(O)C(=O)C=C(O)C1=O at 6000 nM | 105 |
| Cc1cn(-c2cc(NC(=O)c3ccc(C)c(Nc4nccc(-c5cccnc5)n4)c3)cc(C(F)(F)F)c2)cn1 at 1000 nM | 33.4 |
| C/C(O)=C(\C#N)C(=O)Nc1cc(Br)ccc1Br at 10000 nM | 17.2 |
| CCCCCCCCCCCCCCCCCCOP(=O)([O-])OC1CC[N+](C)(C)CC1 at 2000 nM | 189 |
| COc1cc(N2CCC(N3CCN(C)CC3)CC2)ccc1Nc1ncc(Cl)c(Nc2ccccc2S(=O)(=O)C(C)C)n1 at 400 nM | 132 |
| Cn1cc(/C=C2\C(=O)Nc3cccnc32)c2ccccc21 at 2000 nM | 77.9 |
| COc1ccc(C2=N[C@@H](c3ccc(Cl)cc3)[C@@H](c3ccc(Cl)cc3)N2C(=O)N2CCNC(=O)C2)c(OC(C)C)c1 at 500 nM | 127 |
| NC1(c2ccc(-c3nc4ccn5c(=O)[nH]nc5c4cc3-c3ccccc3)cc2)CCC1 at 2000 nM | 112 |
| O=C1NC(=O)/C(=C/c2ccc(-c3ccc(F)cc3O)o2)S1 at 5000 nM | 158 |
| O=C(O)c1ccc(-c2c[nH]c3ncc(-c4ccccc4)cc23)cc1C1CCCC1 at 800 nM | 31.7 |
| CC(C)(C)c1cnc(CSc2cnc(NC(=O)C3CCNCC3)s2)o1 at 50 nM | 203 |
| c1cc(-c2cnn3cc(-c4ccc(OCCN5CCCCC5)cc4)cnc23)ccn1 at 2000 nM | 185 |
| O=S(=O)(c1ccccc1)N(CC(F)(F)F)c1ccc(C(O)(C(F)(F)F)C(F)(F)F)cc1 at 7000 nM | 68.4 |
| COc1ccc2c(c1)CCC1C2CCC2(C)C(NCCCCCCN3C(=O)C=CC3=O)CCC12 (stereo not given) at 2000 nM | 167 |
| C#Cc1cccc(Nc2ncnc3cc(OCCOC)c(OCCOC)cc23)c1 at 4000 nM | 94.0 |
| CCN(CC)CCCCNc1ncc2cc(-c3cc(OC)cc(OC)c3)c(NC(=O)NC(C)(C)C)nc2n1 at 500 nM | 84.1 |
| C[C@]1(O)C[C@@H](c2nc(-c3ccc4ccc(-c5ccccc5)nc4c3)c3c(N)nccn32)C1 at 2000 nM | 165 |
| NC(=O)c1ccc(N(C(N)=O)c2c(F)cccc2F)nc1-c1ccc(F)cc1F at 2000 nM | 210 |
| Cc1cc(Nc2cc(N3CCN(C)CC3)nc(/C=C/c3ccccc3)n2)n[nH]1 at 200 nM | 61.2 |
| N.N.[Cl][Pt][Cl] at 8000 nM | 54.3 |
| C[C@@H]1CCN(C(=O)CC#N)C[C@@H]1N(C)c1ncnc2[nH]ccc12 at 5000 nM | 34.0 |
| CC(C)CCN1c2nc(Nc3cc(F)c(O)c(F)c3)ncc2N(C)C(=O)C1C (stereo not given) at 1000 nM | 106 |

The last 2 entries again:

Second drug	WM451Lu
C[C@@H]1CCN(C(=O)CC#N)C[C@@H]1N(C)c1ncnc2[nH]ccc12 at 5000 nM	34.0
CC(C)CCN1c2nc(Nc3cc(F)c(O)c(F)c3)ncc2N(C)C(=O)C1C (stereo not given) at 1000 nM	106